Our source for the binding values is paper PMC9788671.

By UniProt entry, the sequences of proteins in these tests, tags left out.
UniProt Q9NZV8: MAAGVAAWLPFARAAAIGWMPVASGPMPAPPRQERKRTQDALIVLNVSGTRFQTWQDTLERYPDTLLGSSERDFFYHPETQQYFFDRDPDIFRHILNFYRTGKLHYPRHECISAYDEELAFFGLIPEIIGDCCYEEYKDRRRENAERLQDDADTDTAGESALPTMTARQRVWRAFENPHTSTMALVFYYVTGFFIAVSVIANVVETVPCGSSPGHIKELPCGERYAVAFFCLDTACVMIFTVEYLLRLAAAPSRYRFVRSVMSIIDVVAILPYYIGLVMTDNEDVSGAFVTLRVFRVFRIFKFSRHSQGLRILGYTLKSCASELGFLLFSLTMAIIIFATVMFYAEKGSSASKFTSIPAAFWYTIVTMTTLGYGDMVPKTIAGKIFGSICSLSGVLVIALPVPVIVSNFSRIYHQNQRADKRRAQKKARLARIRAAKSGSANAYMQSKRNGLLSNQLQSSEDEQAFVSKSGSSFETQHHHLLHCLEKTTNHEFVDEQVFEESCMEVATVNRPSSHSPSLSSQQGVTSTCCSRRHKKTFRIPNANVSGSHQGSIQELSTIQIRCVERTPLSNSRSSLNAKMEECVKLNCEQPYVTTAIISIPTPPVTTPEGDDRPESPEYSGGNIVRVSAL

The chains are these.
B1: Rab33a (protein, UniProt D3ZCU8 1-237)
chain: MAQPILGHGSLQPASAAGLASLELDSSMDQYVQIRIFKIIVIGDSNVGKTCLTFRFCGGTFPDKTEATIGVDFREKTVEIEGEKIKVQVWDTAGQERFRKSMVEHYYRNVHAVVFVYDVTKMTSFTNLKMWIQECNGHAVPPLVPKVLVGNKCDLREQIQVPSNLALKFADAHNMLLFETSAKDPKESQNVESIFMCLACRLKAQKSLLYRDAERQQGKVQTLEFPQEANSKTSCPC
B2: Sfxn1 (protein, UniProt Q63965 1-322)
chain: MSGEVPPNINIKEPRWDQSTFIGRASHFFTVTDPKNILLTNEQLENARKVVHDYRQGIVPAGLTENELWRAKYAYDSAFHPDTGEKMTLIGRMSAQVPMNMTITGCMMTFYRTTPAVLFWQWINQSFNAVVNYTNRSGDAPLTVNELGTAYVSATTGAVATALGLNALTKHVSPLIGRFVPFAAVAAANCINIPLMRQRELKVGIPVTDENGTRLGESTNAAKQAITQVVISRILMAAPGMAIPPFIMNTLEKKAFLKRFPWMSAPIQVTLVGFCLVFATPLCCALFPQKSSMSVTSLEDDLQASIQKSHPELRRVYFNKGL
B3: Tecr (protein, UniProt Q64232 1-308)
chain: MKHYEVEIRDAKTREKLCFLDKVEPQATISEIKTLFTKTHPQWYPARQSLRLDPKGKSLKDEDVLQKLPVGTTATLYFRDLGAQISWVTVFLTEYAGPLFIYLLFYFRVPFIYGRKYDFTSSRHTVVHLACMCHSFHYIKRLLETLFVHRFSHGTMPLRNIFKNCTYYWGFAAWMAYYINHPLYTPPTYGVQQVKLALAIFVICQLGNFSIHMALRDLRPAGSKTRKIPYPTKNPFTWLFLLVSCPNYTYEVGSWIGFAIMTQCVPVALFSLVGFTQMTIWAKGKHRSYLKEFRDYPPLRMPIIPFLL
B4: Sfxn3 (protein, UniProt Q9JHY2 1-321)
chain: MGDLPLNINIQEPRWDQSTFLGRARHFFTVTDPRNLLLSGKQLEASRNIVQNYRAGVVTPGLTEDQLWRAKYVYDSAFHPDTGEKVVLIGRMSAQVPMNMTITGCMLTFYRKTPTMVFWQWVNQSFNAIVNYSNRSGDAPITVQQLGTAYVSATTGAVATALGLKSLTKHLPPLVGRFVPFAAVAAANCINIPLMRQRELQVGIPVTDEAGQRLGHSVTAAKQGIFQVVVSRIGMAIPAMAIPPVIMNTLEKKDFLKRRPWLGAPLQVGLVGFCLVFATPLCCALFPQRSSIHVTRLEPELRAQIQAQKPSIDVVYYNKGL
B5: Atp5f1 (protein, UniProt P19511 43-256)
chain: PLPPLPEYGGKVRLGLIPEEFFQFLYPKTGVTGPYVLGTGLSLYFLSKEIYVITPETFSTISVVGLIVYVIKKYGASIGEFIDKLNEEKIAQLEEIKQSSMKQIQDAINREKAQQALVQKRHYLFDVQRNNIALALEVTYRERLHKAYKEVKNRLDYHISVQDMMRRKEGEHMINWVEKHVIQSISAQQEKETIAKCIGDLKMLAKKAQAQPIM
B6: Diras2 (protein, UniProt A0A8I5ZKR8 1-199)
chain: MPEQSNDYRVAVFGAGGVGKSSLVLRFVKGTFRESYIPTVEDTYRQVISCDKSICTLQITDTTGSHQFPAMQRLSISKGHAFILVYSITSRQSLEELKPIYEQICEIKGDVESIPIMLVGNKCDESPNREVQSSEAEALARTWKCAFMETSAKLNHNVKELFQELLNLEKRRTVSLQIDGKKSKQQKRKEKLKGKCVVM
B7: Mrps15 (protein, UniProt Q5XI37 58-257)
chain: VQAKQDDEPASSTFIKEYKNIIPNMEKVDDVVKRILSLEMASRKEKLKIKREQLMNKIAENPEDYRTLEARIVALTVKIRNYEEHMQKHRKDKVHKRHLLMSIDQRKKFLRLLRQTNYDVFEKTCKELGVEYALPPLHFQRVHRRFLAKKALCIQVFQEVQKLKKQRMALKAAAAAAKKEKRERVPENPSNALPEKTKEN
B8: Rab5a (protein, UniProt M0RC99 1-215)
chain: MANRGATRPNGPNTGNKICQFKLVLLGESAVGKSSLVLRFVKGQFHEFQESTIGAAFLTQTVCLDDTTVKFEIWDTAGQERYHSLAPMYYRGAQAAIVVYDITNEESFSRAKNWVKELQRQASPNIVIALSGNKADLANKRAVDFQEAQSYADDNSLLFMETSAKTPMNVNEIFMAIAKKLPKNEPQNPGANSARGRGVDLTEPAQPARSQCCSN
B9: Acp1 (protein, UniProt P41498 1-158)
chain: MAEVGSKSVLFVCLGNICRSPIAEAVFRKLVTDENVSDNWRIDSAATSTYEVGNPPDYRGQNCMKKHGIHMQHIARQITREDFATFDYILCMDESNLRDLNRKSNQVKNCKAKIELLGSYDPQKQLIIEDPYYGNDSDFEVVYQQCLRCCKAFLEKTH
B10: Dhrs7b (protein, UniProt Q5RJY4 1-325)
chain: MISPSSRKGMLKERAMDLVTQTTILPLLFGCLGIFSLFRLLQRTRSKAYLRNAVVVVTGATSGLGKECARVFHAAGAKVVLCGRNVKALEEFTRELADSSSSQGQTHQPCVVTFDLADPGAIAPAAAEILQCFGYVDILINNAGISYRGAISDTIVDVDRKVMEINYFGPVALTKALLPSMVERKRGHIVAISSIQGKISIPFRSAYAASKHATQAFFDCLRAEMKDSDIEVTVISPGYIHTNLSVNAVTADGSRYGALDKNTAQGRSAVEVAQDIFDAVGKKKKDVLLTDFLPTMAVYIRTLAPRLFFRIMASRARKERKSKNS
B11: Mpc2 (protein, UniProt P38718 1-127)
chain: MAAAGARGLRATYHRLMDKVELLLPKKLRPLYNHPAGPRTVFFWAPIMKWGLVCAGLADMARPAEKLSTAQSTVLMATGFIWSRYSLVIIPKNWSLFAVNFFVGSAGASQLFRIWKYNQELKSKGIQ
B12: Pcsk1n (protein, UniProt Q9QXU9 34-260)
chain: ARPVKEPRSLSAASAPLAETSTPLRLRRAVPRGEAAGAVQELARALAHLLEAERQERARAEAQEAEDQQARVLAQLLRAWGSPRASDPPLAPDDDPDAPAAQLARALLRARLDPAALAAQLVPAPAPAAALRPRPPVYDDGPTGPDVEDAADETPDVDPELLRYLLGRILTGSSEPEAAPAPRRLRRAVDQDLGPEVPPENVLGALLRVKRLENSSPQAPARRLLPP
B13: Atp5i (protein, UniProt P29419 1-71)
chain: MVPPVQVSPLIKFGRYSALILGMAYGAKRYSYLKPRAEEERRIAAEEKKRLDELKRIERELAEAEDVSIFK
B14: Farp1 (protein, UniProt F1LYQ8 1-1049)
chain: MGEIEQKPTPASRLGAPENSGISTLERGQKPPPTPSGKLMTVKIQMLDDTQEAFEVPQRAPGKVLFDAVCNHLNLVEGDYFGLEFPDHRKIVVWLDLLKPIVKQIRRPKHVLVKFVVKFFPPDHTQLQEELTRYLFALQVKQDLAQGRLTCNDTSAALLISHIVQSEIGDFDEALDREHLAKNKYVPQQDALEDKIVEFHHSHIGQTPAESDFQLLEVARRLEMYGIRLHPAKDREGTKINLAVANTGILVFQGFTKINAFNWAKVRKLSFKRKRFLIKLRPDVNSSYQDTLEFLMAGRDFCKSFWKICVEHHAFFRLFEEPKPKPKPVLFSRGSSFRFSGRTQKQVLDYVKEGGHKKVQFERKHSKIHSTRSLVSQPTAPNSEVPKQSPQSASLTFGEGTESPSAQSCQQAKETKVCTLEPGPRQSPALSKSPSGSKAADGTAAAAPPEEEDEEEGGKDGIRPSNPQPPQPSTGSLTGSPHLSELSINSQGGAAPANVTLSPNLSPDNKQASPLISPLLNDQACPRTDDEEEGRRKRFPTDKAYYIAKEVSTTERTYLKDLEVIASWFQSTVSKEDSMPEALKSLIFPNFEPLHKFHTNFLKEIEQRLALWEGRSNAHIRGDYQRIGDVMLKNIQGMKHLAAHLWKHSEALEALETSIKGSRRLEHFCRDFELQKVCYLPLNTFLLRPLHRLMHYKQVLERLCKHHPPNHADFRDCRAALAEITEMVAQLHGTMIKMENFQKLHELKKDLIGIDNLVIPGREFIRLGSLSKLSGKGLQQRMFFLFNDVLLYTSRGLTASNQFKVHGQLPLYGMTIEESEEEWGVPHCLTLRGQRQSIIVAASSRSEMEKWLEDIQMAIDLAEKSNGPTPELLASSPPDNKSPDEATAADQESEDDLSASRTSLERQAPHRGNTMVHVCWHRSTSVSMVDFSIAVENQLSGNLLRKFKNSNGWQKLWVVFTNFCLFFYKSHQDSHPLASLPLLGYSLTIPSESENIHKDYVFKLHFKSHVYYFRAESEYTFERWMEVIRSATSSASRAHSLSHKESHLY
B15: Ptpmt1 (protein, UniProt P0C089 32-193)
chain: PAHRDWYHRIDHTVLLGALPLRSMTRRLVLDENVRGVITMNEEYETRFLCNTSKEWKNVGVEQLRLSTVDMTGVPTLANLHRGVQFALKYQSLGQCVYVHCKAGRSRSATMVAAYLIQVHNWSPEEAIEAIAKIRSHISIRPSQLEILKEFHKEIAARAAKN
B16: Stmn1 (protein, UniProt P13668 1-149)
chain: MASSDIQVKELEKRASGQAFELILSPRSKESVPEFPLSPPKKKDLSLEEIQKKLEAAEERRKSHEAEVLKQLAEKREHEKEVLQKAIEENNNFSKMAEEKLTHKMEANKENREAQMAAKLERLREKDKHVEEVRKNKESKDPADETEAD
B17: Tfam (protein, UniProt Q91ZW1 43-244)
chain: SSLGNYPKKPMSSYLRFSTEQLPKFKAKHPDAKVSELIRKIAAMWRELPEAEKKVYEADFKAEWKVYKEAVSKYKEQLTPSQLMGLEKEARQKRLKKKAQIKRRELILLGKPKRPRSAYNIYVSESFQEAKDESAQGKLKLVNQAWKNLSHDEKQAYIQLAKDDRIRYDNEMKSWEEQMAEVGRSDLIRRSVKRPPGDISEN
B18: Slc25a18 (protein, UniProt Q505J6 1-320)
chain: MIACRMSSQDLSITAKLINGGIAGLVGVTCVFPIDLAKTRLQNQQGKDVYKGMTDCLVKTARAEGFLGMYRGAAVNLTLVTPEKAIKLAANDFLRQLLMQDGTQRNLKMEMLAGCGAGICQVVITCPMEMLKIQLQDAGRLAVCQQASASATPTSRPYSTGSTSTHRRPSATLIAWELLRTQGLSGLYRGLGATLLRDIPFSIIYFPLFANLNQLGVSELTGKASFTHSFVAGCAAGSVSAVAVTPLDVLKTRIQTLKKGLGEDTYRGVTDCARKLWTQEGAAAFMKGAGCRALVIAPLFGIAQGVYFIGIGERILKCFE

No constants are given. Whether binding was seen depends on the method and setting. In cells and extracts the contact can be indirect. Here binding means that the protein was enriched with, or labelled near, the bait; the list need not be complete.

The target in the assay is TAP-Kv4.2 (human) (UniProt Q9NZV8). Nature of the assay: affinity purification with mass spectrometry; TAP-Kv4.2 expressed by lentivirus in rat hippocampal neurons, harvested at DIV14; strong lysis buffer (1% Triton X-100, 0.5% deoxycholate in PBS, pH 7.4); streptavidin resin, then calmodulin resin; gel cut into high and low molecular weight fragments; no MS of the control sample.
In the case of B1, the binding result was “binds”. Next, B2: “binds”; B3: “binds”. Consider B4, for which the binding result was “binds”.

With B5, the binding result is listed as “binds”.

Take B6: the binding entry is given as “binds”. B7: the binding entry is listed as “binds”.

For the molecule B8, the binding entry is “binds”.

With B9, the binding result is “binds”. For B10, the binding result was “binds”. Next, B11: “binds”; B12: “binds”. The result for B13 reads “binds”; that for B14, “binds”. As for B15, the binding result is given as “binds”. For B16, the binding result was “binds”. B17: the binding entry is “binds”. Regarding B18, the binding result was “binds”.
